Test results: article PMC6214118

Tested on: Hnf4α (Siganus canaliculatus (rabbitfish))
Assay: EMSA supershift
Details: Hepatocyte nuclear extract, shift abolished by excess unlabeled probe, supershift with Hnf4α antibody; Beyotime Chemiluminescent EMSA Kit per manufacturer; antibody pre-incubated 30 min at 0-4 °C; 4% non-denaturing PAGE; salt and pH not stated; protein in an extract; label: 5' biotin on both strands

“TCTGCACCCACACTTTGTACTTCACCTCG (double strand) [elovl5 promoter Hnf4α-1 probe (BF/BR)]”: binds.

For at least one entry, the source does not settle the construct or the ends of the probe. Where cells or extracts were used, other partners may take part.
